Results: PubChem BioAssay AID1671190 (National Center for Advancing Translational Sciences (NCATS), 2021)
Hit rate of the full screen: of about 580,000 compounds, about 6,100 (1.1%) were called active. This list was built around the results that the source calls inconclusive (neither active nor inactive); the mix of calls is not that of the screen. Calls follow the shape of the dose curve; as a rule, active = well fitted inhibition curve with a large enough effect; inconclusive = small, poorly fitted or top-dose-only effect, or another doubt; inactive = no such curve, though single readings can be large or run the other way. A potency beside an inconclusive call is a rough fit, not a confirmed value.

By UniProt entry, the sequences of proteins in these tests, tags left out. Where a name states a change or a piece, a line headed by the entry shows the natural chain unless it says otherwise.
UniProt P18054: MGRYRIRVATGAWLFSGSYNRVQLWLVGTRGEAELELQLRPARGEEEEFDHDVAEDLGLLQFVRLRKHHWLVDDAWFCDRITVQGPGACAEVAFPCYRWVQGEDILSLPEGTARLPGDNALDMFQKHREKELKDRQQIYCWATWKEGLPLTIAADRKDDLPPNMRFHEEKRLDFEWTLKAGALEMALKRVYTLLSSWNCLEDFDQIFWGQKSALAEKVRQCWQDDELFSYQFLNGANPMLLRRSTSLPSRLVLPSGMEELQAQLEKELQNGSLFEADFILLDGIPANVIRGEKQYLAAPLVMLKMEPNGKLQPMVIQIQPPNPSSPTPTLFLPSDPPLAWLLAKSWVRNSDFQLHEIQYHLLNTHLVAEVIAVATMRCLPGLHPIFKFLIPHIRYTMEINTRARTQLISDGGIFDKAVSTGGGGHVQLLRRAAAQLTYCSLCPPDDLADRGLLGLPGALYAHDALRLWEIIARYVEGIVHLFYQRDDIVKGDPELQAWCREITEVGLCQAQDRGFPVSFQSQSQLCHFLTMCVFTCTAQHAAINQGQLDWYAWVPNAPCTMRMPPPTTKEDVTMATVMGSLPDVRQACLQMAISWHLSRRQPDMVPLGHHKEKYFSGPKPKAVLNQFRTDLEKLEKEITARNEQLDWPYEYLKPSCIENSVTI

biological target: Polyunsaturated fatty acid lipoxygenase ALOX12 (Homo sapiens) (UniProt P18054); experiment: Primary qHTS assay for inhibitors of human arachidonate 12S-lipoxygenase (ALOX12): Round 2; conditions: purified 12hLO, xylenol orange hydroperoxide absorbance; activity change, negative = inhibition: at 108 µM (top of the series) unless noted
Method in brief: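 Purified human 12hLO at 150 nM in 25 mM Hepes, 0.01% Triton X-100, pH 7.0, preincubated 15 min at room temperature with compound. Reaction started with 40 uM arachidonic acid, 30 min at room temperature. Hydroperoxide measured by Fe-xylenol orange, 573/405 nm absorbance ratio.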
% is scaled to controls: 0 for no effect and ±100 for the full control effect; potency is read from the fitted curve at half-maximal effect.

O=C(c1ccc(F)cc1)N1CCN(c2cc(N3CCCCC3)c(F)cc2[N+](=O)[O-])CC1 was tested. Which Potency did it give?
Its Potency is “inactive”.

How did the Potency turn out when CCOC(=O)c1[nH]c2ccccc2c1NC(=S)Nc1ccccc1C was run?
Its Potency is inconclusive: 44.7 µM [inhibitor, partial curve, poor fit].

COC(=O)c1scc(-c2ccc(C)cc2)c1S(=O)(=O)Nc1c(C)cc(C)cc1C was tested. Which activity change, negative = inhibition did it give?
The activity change, negative = inhibition was inconclusive: -30.4% [inhibitor].

With COc1ccc(NC(=O)CN2C(=O)CC(c3ccco3)Sc3ccccc32)cc1OC (stereo not given) as the compound, how does the Potency read?
Its Potency is “inactive”.

How did the Potency turn out when COc1ccc(Cc2nc(C(=O)Nc3ccc(F)cc3)cs2)cc1 was run?
Its Potency is inconclusive: 0.398 µM [inhibitor, full curve, poor fit].

Which Potency does the source give for O=C(O)c1ccc(CNCc2cccc(Cl)c2Cl)cc1 here?
Its Potency is inconclusive: 8.91 µM [inhibitor, full curve].

With Cc1nc2c(-c3ccccc3)c(C)[nH]n2c(=O)c1Cc1ccc(C(C)C)cc1 as the compound, how does the Potency read?
Its Potency is “inactive”.

For CC(/C=C/c1ccco1)=N/NC(=O)Cc1cccs1, which Potency is on record?
The Potency was “inactive”.

COc1ccccc1C1CC(=O)Oc2c(C(C)C)ccc(C)c21 (stereo not given) was tested. Which Potency did it give?
Its Potency is inconclusive: 112 µM [inhibitor, single point].

For COc1ccc(N2CCN(c3nc4c(c(=O)[nH]c(=O)n4C)n3Cc3cccc(C)c3)CC2)cc1, which Potency is on record?
The Potency was “inactive”.

For C#Cc1cccc(Nc2nc(NC(C)C)nc3ccsc23)c1, which Potency is on record?
The Potency was inconclusive: 50.1 µM [inhibitor, partial curve, poor fit].

CN1C[C@]2(CCN3CCCC(C)(C)[C@@H]32)c2ccccc21 was tested. Which Potency did it give?
The Potency was inconclusive: 8.91 µM [inhibitor, full curve, poor fit].

Which Potency does the source give for COc1ccc(S(=O)(=O)n2ccnc2)c2cccnc12 here?
The Potency was inconclusive: 3.16 µM [inhibitor, full curve, poor fit].

CCc1c(C)sc(NC(=O)C(F)(F)F)c1C#N was tested. Which Potency did it give?
Its Potency is inconclusive: 28.2 µM [inhibitor, full curve, poor fit].

How did the Potency turn out when O=c1c2c3c(nn2ccn1Cc1ccc(Cl)cc1)CCCC3 was run?
The Potency was inconclusive: 28.2 µM [inhibitor, full curve, poor fit].

With CC(C)CN(C(=O)CCNC(=O)c1ccc(Cl)cc1)C1CCS(=O)(=O)C1 (stereo not given) as the compound, how does the Potency read?
Its Potency is “inactive”.

COc1nccnc1NS(=O)(=O)c1ccc(NC(=S)NC(=O)c2ccccc2F)cc1 was tested. Which Potency did it give?
Its Potency is active: 44.7 µM.

With O=C(Nc1ccc(Cl)cc1)C1CCN(S(=O)(=O)c2ccc(Br)s2)CC1 as the compound, how does the Potency read?
Its Potency is inconclusive: 126 µM [inhibitor, partial curve, poor fit].

For CCOc1ccc(N(CC(=O)Nc2c(C)cc(C)cc2C)C2=NC3CS(=O)(=O)CC3S2)cc1 (stereo not given), which Potency is on record?
The Potency was “inactive”.

How did the Potency turn out when O=C(/C=C/c1ccc(-c2ccccc2[N+](=O)[O-])o1)c1ccc(Br)cc1 was run?
The Potency was “inactive”.

O=C(/C=C/c1ccccc1)N/C(=C\c1ccco1)C(=O)NCCO was tested. Which Potency did it give?
The Potency was inconclusive: 50.1 µM [inhibitor, partial curve, poor fit].

With Nc1nc(C2CC(O)C2)cc(N2CCc3sccc3C2)n1 (stereo not given) as the compound, how does the Potency read?
The Potency was inconclusive: 63.1 µM [inhibitor, partial curve, poor fit].

CC(C)c1cc(N2CCN(C(=O)c3ccco3)CC2)n2c(nc3ccccc32)c1C#N was tested. Which Potency did it give?
Its Potency is inconclusive: 25.1 µM [inhibitor, partial curve, poor fit].

O=C(Nc1ccc2c(c1)OCO2)C1CCN(Cc2cc3c(cc2O)OCO3)CC1 was tested. Which Potency did it give?
The Potency was inconclusive: 50.1 µM [inhibitor, partial curve, poor fit].

Which Potency does the source give for CC1CN(C(=O)Nc2ccc(C(=O)NCCc3ccccc3Cl)cc2)c2ccccc2S1 (stereo not given) here?
The Potency was “inactive”.

COc1ccc2c(c1)CC1c3c(cc4c(c3-2)OCO4)CC[N+]1(C)[O-] (stereo not given) was tested. Which Potency did it give?
The Potency was inconclusive: 50.1 µM [inhibitor, partial curve, poor fit].

O=C(/C=C/c1cccs1)c1ccc(Br)cc1 was tested. Which Potency did it give?
Its Potency is “inactive”.

For COc1ccccc1-c1cccc(-c2c(O)c3cc(C#N)c(Cl)cc3[nH]c2=O)c1, which Potency is on record?
Its Potency is inconclusive: 7.89 µM [inhibitor, partial curve].

With CC(NC1=CC(=O)c2cccnc2C1=O)C(O)c1ccccc1 (stereo not given) as the compound, how does the Potency read?
The Potency was inconclusive: 2 µM [inhibitor, full curve].

How did the Potency turn out when CC(C)NC(=S)N/N=C/C(Cl)=C/c1ccccc1 was run?
Its Potency is “inactive”.

How did the Potency turn out when CCCCSc1nc2sc3c(c2c(=O)n1-c1ccccc1)CCN(C)C3 was run?
Its Potency is inconclusive: 17.8 µM [inhibitor, full curve, poor fit].

For CC1(C)CC(=O)C2=C(C1)N(N1CCOCC1)C(N)=C(C#N)C2c1ccccc1Cl (stereo not given), which Potency is on record?
The Potency was inconclusive: 112 µM [inhibitor, partial curve, poor fit].

With N#Cc1ccc(C(=O)C(C#N)C(=O)Nc2cccc3ccccc23)cc1 (stereo not given) as the compound, how does the Potency read?
Its Potency is inconclusive: 100 µM [inhibitor, single point].

With Cc1ccccc1Nc1nc(N)nc(COc2ccccc2C(=O)NCc2ccccc2)n1 as the compound, how does the Potency read?
Its Potency is “inactive”.

Which Potency does the source give for Cc1ccccc1-c1cc(=O)c2cc(NC(=O)c3cccnc3)ccc2o1 here?
The Potency was inconclusive: 112 µM [inhibitor, partial curve, poor fit].

With C/C(=N\O)C(=O)NCC1CCNCC1 as the compound, how does the Potency read?
The Potency was “inactive”.

CCOc1ccc(NC(=O)CC2C(=O)N(c3cccc(C)c3)C(=O)N2Cc2ccco2)cc1 (stereo not given) was tested. Which activity change, negative = inhibition did it give?
The activity change, negative = inhibition was inconclusive: -37.2% [inhibitor].

With CC(=O)NS(=O)(=O)c1ccc(NC(=O)c2ccc(NC(=O)c3cccs3)cc2)cc1 as the compound, how does the Potency read?
Its Potency is “inactive”.

With CCC(C)Cc1nc(N)c(C#N)c(-c2ccccc2)c1C (stereo not given) as the compound, how does the Potency read?
The Potency was “inactive”.

CC(O)(c1ccc(F)c(F)c1)c1nc(/C=C/c2ccc(C(F)(F)F)cc2)cs1 (stereo not given) was tested. Which Potency did it give?
Its Potency is active: 35.5 µM.

How did the Potency turn out when N=C(N)SCCN=C(N)N was run?
The Potency was inconclusive: 31.6 µM [inhibitor, single point].

CCOC(=O)c1cc(-c2ccc(Cl)cc2)nc2c1c(C)nn2CCC#N was tested. Which Potency did it give?
Its Potency is “inactive”.

For COc1ccccc1CNC(=O)c1ccc(CS(=O)c2ccc(Br)cc2)o1 (stereo not given), which Potency is on record?
The Potency was inconclusive: 39.8 µM [inhibitor, partial curve, poor fit].

With CCc1c(-c2cccc(OC)c2)ncn1Cc1cccc(-c2ccccc2)c1 as the compound, how does the Potency read?
Its Potency is inconclusive: 112 µM [inhibitor, single point].

Which Potency does the source give for COc1ccc(Oc2c(C)oc3cc(OCC(=O)N4CCC(C(N)=O)CC4)ccc3c2=O)cc1 here?
Its Potency is inconclusive: 35.5 µM [inhibitor, single point].
